Test results published in patent US20130165328, “APPARATUS AND METHODS FOR KINETIC ANALYSIS AND DETERMINATION OF NUCLEIC ACID SEQUENCES” (ILLUMINA, INC., published 2013).
Protein sequences can lack the tags named with them.

Target: T1, BSU DNA polymerase I second Ser after 6xHis tag replaced by Cys (in tag) (Bacillus subtilis) (UniProt O34996)
T1 sequence (looked up, limits assumed): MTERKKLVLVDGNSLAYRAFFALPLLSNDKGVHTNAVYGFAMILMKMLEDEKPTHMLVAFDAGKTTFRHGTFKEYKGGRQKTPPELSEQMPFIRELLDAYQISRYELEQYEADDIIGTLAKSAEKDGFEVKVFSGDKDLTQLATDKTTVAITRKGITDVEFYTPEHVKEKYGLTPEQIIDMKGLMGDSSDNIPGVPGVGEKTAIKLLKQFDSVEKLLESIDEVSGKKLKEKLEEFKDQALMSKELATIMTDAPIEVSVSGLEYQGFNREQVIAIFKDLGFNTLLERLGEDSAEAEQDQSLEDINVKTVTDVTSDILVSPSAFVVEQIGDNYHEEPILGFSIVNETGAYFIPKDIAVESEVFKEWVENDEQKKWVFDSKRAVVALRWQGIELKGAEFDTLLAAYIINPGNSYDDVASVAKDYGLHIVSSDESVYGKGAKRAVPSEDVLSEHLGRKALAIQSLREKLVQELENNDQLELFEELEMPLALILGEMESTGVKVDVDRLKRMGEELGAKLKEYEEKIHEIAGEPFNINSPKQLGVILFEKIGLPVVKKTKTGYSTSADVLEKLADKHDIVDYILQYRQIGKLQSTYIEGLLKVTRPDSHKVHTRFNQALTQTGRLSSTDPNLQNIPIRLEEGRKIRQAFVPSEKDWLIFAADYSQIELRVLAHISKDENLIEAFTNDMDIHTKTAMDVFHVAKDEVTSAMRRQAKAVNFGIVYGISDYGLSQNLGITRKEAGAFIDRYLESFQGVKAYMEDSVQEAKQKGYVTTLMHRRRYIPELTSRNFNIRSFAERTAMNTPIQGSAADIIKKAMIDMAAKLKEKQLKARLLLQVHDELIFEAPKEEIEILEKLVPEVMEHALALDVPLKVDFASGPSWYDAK
Experiment: activity assay
Conditions: quench-flow kpol for dCTP; nucleotide Kd,app 29.1 uM (not DNA Kd); 300 mM NaCl, 10 mM MgSO4, 45 C; purified recombinant protein; label: 5'-Cy5 primer

“GCTTGCACAGGGCCTCGAC / CGTTAGTAAGGTCGAGGCCCTGTGCAAGC [19/36 mer primer/template duplex (Cy5-labelled)]” was tested, and the “activity on this sequence” value was “active”.
